Reference: PMC5505151, “A proteomic analysis of LRRK2 binding partners reveals interactions with multiple signaling components of the WNT/PCP pathway” (Molecular Neurodegeneration, 2017)

Protein sequences, listed by entry. Tags and fused reporters are not part of them.
UniProt Q5S006: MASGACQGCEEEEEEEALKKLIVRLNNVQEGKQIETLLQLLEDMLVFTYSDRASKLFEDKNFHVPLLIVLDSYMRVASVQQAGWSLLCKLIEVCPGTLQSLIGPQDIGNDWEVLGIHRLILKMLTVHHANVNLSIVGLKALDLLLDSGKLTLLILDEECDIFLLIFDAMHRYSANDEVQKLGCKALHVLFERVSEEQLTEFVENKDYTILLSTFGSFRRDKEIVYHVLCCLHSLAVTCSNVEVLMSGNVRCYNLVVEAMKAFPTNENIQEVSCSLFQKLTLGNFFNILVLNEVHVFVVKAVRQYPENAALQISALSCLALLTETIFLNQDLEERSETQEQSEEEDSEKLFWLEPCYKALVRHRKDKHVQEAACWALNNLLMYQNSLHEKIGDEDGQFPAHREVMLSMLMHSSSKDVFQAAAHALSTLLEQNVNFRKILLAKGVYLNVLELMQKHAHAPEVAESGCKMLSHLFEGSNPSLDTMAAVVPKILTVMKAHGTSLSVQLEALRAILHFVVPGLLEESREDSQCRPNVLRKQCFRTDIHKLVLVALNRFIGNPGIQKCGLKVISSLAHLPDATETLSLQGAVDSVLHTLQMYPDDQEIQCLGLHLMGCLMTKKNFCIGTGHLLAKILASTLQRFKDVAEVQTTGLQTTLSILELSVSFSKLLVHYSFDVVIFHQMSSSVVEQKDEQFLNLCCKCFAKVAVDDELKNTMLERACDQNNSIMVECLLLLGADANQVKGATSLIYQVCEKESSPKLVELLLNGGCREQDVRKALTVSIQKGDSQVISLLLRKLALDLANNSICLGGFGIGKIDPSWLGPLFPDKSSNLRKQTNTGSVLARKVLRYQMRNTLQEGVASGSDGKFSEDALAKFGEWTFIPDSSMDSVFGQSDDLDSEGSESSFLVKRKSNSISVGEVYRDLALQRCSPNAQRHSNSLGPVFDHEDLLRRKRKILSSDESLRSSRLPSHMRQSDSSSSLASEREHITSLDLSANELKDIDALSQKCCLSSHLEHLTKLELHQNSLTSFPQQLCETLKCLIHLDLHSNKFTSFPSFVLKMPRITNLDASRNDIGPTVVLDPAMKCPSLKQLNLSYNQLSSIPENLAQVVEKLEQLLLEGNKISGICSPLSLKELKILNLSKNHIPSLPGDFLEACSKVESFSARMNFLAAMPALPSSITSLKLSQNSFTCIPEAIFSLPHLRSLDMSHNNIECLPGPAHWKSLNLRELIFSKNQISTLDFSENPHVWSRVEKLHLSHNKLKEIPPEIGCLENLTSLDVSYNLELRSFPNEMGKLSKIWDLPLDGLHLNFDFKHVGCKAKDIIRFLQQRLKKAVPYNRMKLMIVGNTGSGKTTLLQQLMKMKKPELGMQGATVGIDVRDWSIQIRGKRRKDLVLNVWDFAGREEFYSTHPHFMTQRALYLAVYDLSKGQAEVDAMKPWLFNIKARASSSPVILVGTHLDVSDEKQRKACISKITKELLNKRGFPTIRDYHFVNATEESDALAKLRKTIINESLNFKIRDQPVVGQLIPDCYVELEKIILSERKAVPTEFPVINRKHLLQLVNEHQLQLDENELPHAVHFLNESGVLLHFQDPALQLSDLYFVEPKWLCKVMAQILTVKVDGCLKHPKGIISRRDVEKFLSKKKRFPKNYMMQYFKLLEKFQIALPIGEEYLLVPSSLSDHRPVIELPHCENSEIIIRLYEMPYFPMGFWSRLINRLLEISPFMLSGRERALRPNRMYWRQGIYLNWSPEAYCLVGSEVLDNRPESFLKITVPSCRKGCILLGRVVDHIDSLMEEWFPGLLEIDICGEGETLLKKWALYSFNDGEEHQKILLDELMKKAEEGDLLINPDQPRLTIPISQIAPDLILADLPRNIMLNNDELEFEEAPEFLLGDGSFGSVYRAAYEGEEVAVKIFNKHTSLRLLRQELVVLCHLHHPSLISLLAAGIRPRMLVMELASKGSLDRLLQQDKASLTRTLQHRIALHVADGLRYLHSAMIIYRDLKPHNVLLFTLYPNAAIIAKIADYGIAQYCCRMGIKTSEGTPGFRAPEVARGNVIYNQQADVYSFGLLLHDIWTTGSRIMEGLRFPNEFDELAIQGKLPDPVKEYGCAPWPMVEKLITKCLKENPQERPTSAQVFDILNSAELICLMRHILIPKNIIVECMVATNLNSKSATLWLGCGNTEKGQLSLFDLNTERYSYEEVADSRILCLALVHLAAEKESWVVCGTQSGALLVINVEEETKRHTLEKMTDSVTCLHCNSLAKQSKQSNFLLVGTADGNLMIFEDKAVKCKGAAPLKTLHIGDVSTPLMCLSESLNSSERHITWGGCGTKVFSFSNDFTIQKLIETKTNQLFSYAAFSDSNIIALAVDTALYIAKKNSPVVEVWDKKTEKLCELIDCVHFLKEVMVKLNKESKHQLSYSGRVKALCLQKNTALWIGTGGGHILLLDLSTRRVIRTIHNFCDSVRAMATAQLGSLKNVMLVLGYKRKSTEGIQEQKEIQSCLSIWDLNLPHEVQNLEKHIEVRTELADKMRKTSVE

Legend:
[1] = target: endogenous LRRK2 (Leucine-rich repeat kinase 2) (mouse (endogenous in SN4741 and in mouse ventral midbrain)) (UniProt Q5S006); assay: affinity purification with mass spectrometry; SN4741 cells, endogenous LRRK2 immunoprecipitated; buffer with 0.1% sodium deoxycholate, tryptic digestion directly on beads, LC-MS/MS; only proteins absent in the IgG control counted
[2] = target: endogenous LRRK2 (Leucine-rich repeat kinase 2) (mouse (endogenous in SN4741 and in mouse ventral midbrain)) (UniProt Q5S006); assay: affinity purification with mass spectrometry; SN4741 cells, endogenous LRRK2 immunoprecipitated; NP40 buffer, SDS-PAGE, Coomassie staining, in-gel tryptic digestion, LC-MS/MS; only proteins absent in the IgG control counted
[3] = target: endogenous LRRK2 (Leucine-rich repeat kinase 2) (mouse (endogenous in SN4741 and in mouse ventral midbrain)) (UniProt Q5S006); assay: affinity purification with mass spectrometry; SN4741 cells, endogenous LRRK2 immunoprecipitated, LC-MS/MS; which of the two protocols (NP40 in-gel, sodium deoxycholate on-beads) gave this hit is not given

| binding [1] | binding [2] | binding [3] | Binder |
| --- | --- | --- | --- |
| binds | binds | – | BEN domain-containing protein 3 (endogenous, SN4741) (protein, UniProt Q6PAL0 1-825) MNSTEISEDVEEVLKNNPVKAEGSDATLDCSRNSRASEKHLLESVLTALHDSSKRKQLDSDGQPDSVPSVKRRRLIPEALLAGMRTRENSSPCQGNGEPASRGRSGSCAWPAEEEPSTEATVPSYKKPLYGISHKIMEKKNPPSGDLLSPYELFEKANSSSGPSPLRLLSESQKRECGVGVATDGDLNIYFLIQKMFYMLNGLTTNMSQLHSKMDLLSLEVSRVKKQVSPSELVAKFQPPPEYQLTASELKQIAEQSLSCGDLACRLLLQLFPELFSDVDFSRGCSACGFAAKRKLESLHLQLIRNYVEVYYPNVKDTAVWQAECLPQLNDFFSRFWAQREMEDSQPGGQVTNFFEADQVDAGHFLDNKDQEEALSLDRSSTIASDHVVDTQDLTEFLDEASSPGEFAVFLLHRLFPELFDHRKLGEQYSCYGDGGKQELDPQRLQIIRNYTEIYFPDMQEEEAWLQQCAQRINDELEGLGLEGGSEGEAPRDDCYDSSSLPDDISVVKVEDNFEGERPGRRSKKIWLVPIDFDKLEIPQPDFEMPGSDCLLSKEQLRSIYESSLSIGNFASRLLVHLFPELFTHENLRKQYNCSGSLGKKQLDPARIRLIRHYVQLLYPRAKNDRVWTLEFVGKLDERCRRRDTEQRRSYQQQRKVHVPGPECRDLASYAINPERFREEFEGPPLPPERSSKDFCKIPLDELVVPSPDFPVPSPYLLSDKEVREIVQQSLSVGNFAARLLVRLFPELFTTENLRLQYNHSGACNKKQLDPTRLRLIRHYVEAVYPVEKMEEVWHYECIPSIDERCRRPNRKKCDILKKAKKVEK |
| – | – | binds | Lipoma-preferred partner (endogenous, mouse) (protein, UniProt Q8BFW7 1-613) MSHPSWLPPKSTGEPLGHVPARMETTHSFGNPSISVSTQQPPKKYAPVVAPKPKYNPYKQPGGEGDLLPPPPPPLEDPGTIPPGPGHFPPPPPLDEGAFKVQQGNPGGKTLEERRSSLDAEIDSLTSILADLECSSPYKPRPPQGSASSIASPPVSTPVTGHKRMVIPQQPPLTATKKSATKPQPAPQAAPIPVTPIGTLKPQPQPVPASYTTASTSSRPTFNVQVKSAQPSPHYMAGPSSGQIYGPGPRGYNNQPVPVSGQCPPPPTCVGTDYAYIPPSGHPPESGYGYTSNQGRYYEPYYAAGPSYGGRSEGDTAYGQQVQPNTWKREAAYAPPASGNQNHPGMYPVSGPKKTYITDPVSAPCAPPLQPKGGYPGPMGPPSIPPSFRPEDELEHLTKKMLYDMENPPADDYFGRCARCGENVVGEGTGCTAMDQVFHVDCFTCIVCDVKLRGQPFYAVEKKAYCEPCYINTLEQCSVCSKPIMERILRATGKAYHPHCFTCVMCHRSLDGIPFTVDACGLIHCIEDFHKKFAPRCSVCKEPIMPAPGQEETVRIVALDRDFHVHCYRCEDCGGLLSEGDNQGCYPLDGHILCKTCNSARIRVLTAKASTDL |

These are yes or no findings as the source states them, for the method shown. In cells and extracts the contact can be indirect. Here binding means that the protein was enriched with, or labelled near, the bait; the list need not be complete.
